These results are taken from PMC3830446.

Protein sequences, listed by entry. Tags and fused reporters are not part of them.
UniProt P30086: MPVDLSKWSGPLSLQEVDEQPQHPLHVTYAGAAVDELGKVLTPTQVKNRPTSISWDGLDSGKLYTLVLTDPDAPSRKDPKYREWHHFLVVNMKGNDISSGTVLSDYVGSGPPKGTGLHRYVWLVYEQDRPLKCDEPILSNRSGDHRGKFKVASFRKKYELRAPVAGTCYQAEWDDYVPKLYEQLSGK

No constants are given. Whether binding was seen depends on the method and setting. In cells and extracts the contact can be indirect. These calls come from enrichment with a bait or labelling near it, and not all partners need be listed.

The experiment addresses RKIP-3xFLAG fusion protein (UniProt P30086). Kind of experiment: affinity purification with mass spectrometry; RKIP-3xFLAG from transfected SGC7901 cells held on anti-FLAG M2 magnetic beads (overnight, 4°C); 1D SDS-PAGE, in-gel trypsin digestion, ESI-Q-TOF MS/MS; 3xFLAG (blank carrier) and blank groups as controls; repeated three times.

B1: Valyl-tRNA synthetase (protein, UniProt P26640 1-1264)
chain: MSTLYVSPHPDAFPSLRALIAARYGEAGEGPGWGGAHPRICLQPPPTSRTPFPPPRLPALEQGPGGLWVWGATAVAQLLWPAGLGGPGGSRAAVLVQQWVSYADTELIPAACGATLPALGLRSSAQDPQAVLGALGRALSPLEEWLRLHTYLAGEAPTLADLAAVTALLLPFRYVLDPPARRIWNNVTRWFVTCVRQPEFRAVLGEVVLYSGARPLSHQPGPEAPALPKTAAQLKKEAKKREKLEKFQQKQKIQQQQPPPGEKKPKPEKREKRDPGVITYDLPTPPGEKKDVSGPMPDSYSPRYVEAAWYPWWEQQGFFKPEYGRPNVSAANPRGVFMMCIPPPNVTGSLHLGHALTNAIQDSLTRWHRMRGETTLWNPGCDHAGIATQVVVEKKLWREQGLSRHQLGREAFLQEVWKWKEEKGDRIYHQLKKLGSSLDWDRACFTMDPKLSAAVTEAFVRLHEEGIIYRSTRLVNWSCTLNSAISDIEVDKKELTGRTLLSVPGYKEKVEFGVLVSFAYKVQGSDSDEEVVVATTRIETMLGDVAVAVHPKDTRYQHLKGKNVIHPFLSRSLPIVFDEFVDMDFGTGAVKITPAHDQNDYEVGQRHGLEAISIMDSRGALINVPPPFLGLPRFEARKAVLVALKERGLFRGIEDNPMVVPLCNRSKDVVEPLLRPQWYVRCGEMAQAASAAVTRGDLRILPEAHQRTWHAWMDNIREWCISRQLWWGHRIPAYFVTVSDPAVPPGEDPDGRYWVSGRNEAEAREKAAKEFGVSPDKISLQQDEDVLDTWFSSGLFPLSILGWPNQSEDLSVFYPGTLLETGHDILFFWVARMVMLGLKLTGRLPFREVYLHAIVRDAHGRKMSKSLGNVIDPLDVIYGISLQGLHNQLLNSNLDPSEVEKAKEGQKADFPAGIPECGTDALRFGLCAYMSQGRDINLDVNRILGYRHFCNKLWNATKFALRGLGKGFVPSPTSQPGGHESLVDRWIRSRLTEAVRLSNQGFQAYDFPAVTTAQYSFWLYELCDVYLECLKPVLNGVDQVAAECARQTLYTCLDVGLRLLSPFMPFVTEELFQRLPRRMPQAPPSLCVTPYPEPSECSWKDPEAEAALELALSITRAVRSLRADYNLTRIRPDCFLEVADEATGALASAVSGYVQALASAGVVAVLALGAPAPQGCAVALASDRCSIHLQLQGLVDPARELGKLQAKRVEAQRQAQRLRERRAASGYPVKVPLEVQEADEAKLQQTEAELRKVDEAIALFQKML
On to B1, for which the binding result is “binds”.

B2: Isoleucyl-tRNA synthetase, cytoplasmic (protein, UniProt P41252 1-1262)
chain: MLQQVPENINFPAEEEKILEFWTEFNCFQECLKQSKHKPKFTFYDGPPFATGLPHYGHILAGTIKDIVTRYAHQSGFHVDRRFGWDCHGLPVEYEIDKTLGIRGPEDVAKMGITEYNNQCRAIVMRYSAEWKSTVSRLGRWIDFDNDYKTLYPQFMESVWWVFKQLYDKGLVYRGVKVMPFSTACNTPLSNFESHQNYKDVQDPSVFVTFPLEEDETVSLVAWTTTPWTLPSNLAVCVNPEMQYVKIKDVARGRLLILMEARLSALYKLESDYEILERFPGAYLKGKKYRPLFDYFLKCKENGAFTVLVDNYVKEEEGTGVVHQAPYFGAEDYRVCMDFNIIRKDSLPVCPVDASGCFTTEVTDFAGQYVKDADKSIIRTLKEQGRLLVATTFTHSYPFCWRSDTPLIYKAVPSWFVRVENMVDQLLRNNDLCYWVPELVREKRFGNWLKDARDWTISRNRYWGTPIPLWVSDDFEEVVCIGSVAELEELSGAKISDLHRESVDHLTIPSRCGKGSLHRISEVFDCWFESGSMPYAQVHYPFENKREFEDAFPADFIAEGIDQTRGWFYTLLVLATALFGQPPFKNVIVNGLVLASDGQKMSKRKKNYPDPVSIIQKYGADALRLYLINSPVVRAENLRFKEEGVRDVLKDVLLPWYNAYRFLIQNVLRLQKEEEIEFLYNENTVRESPNITDRWILSFMQSLIGFFETEMAAYRLYTVVPRLVKFVDILTNWYVRMNRRRLKGENGMEDCVMALETLFSVLLSLCRLMAPYTPFLTELMYQNLKVLIDPVSVQDKDTLSIHYLMLPRVREELIDKKTESAVSQMQSVIELGRVIRDRKTIPIKYPLKEIVVIHQDPEALKDIKSLEKYIIEELNVRKVTLSTDKNKYGIRLRAEPDHMVLGKRLKGAFKAVMTSIKQLSSEELEQFQKTGTIVVEGHELHDEDIRLMYTFDQATGGTAQFEAHSDAQALVLLDVTPDQSMVDEGMAREVINRIQKLRKKCNLVPTDEITVYYKAKSEGTYLNSVIESHTEFIFTTIKAPLKPYPVSPSDKVLIQEKTQLKGSELEITLTRGSSLPGPACAYVNLNICANGSEQGGVLLLENPKGDNRLDLLKLKSVVTSIFGVKNTELAVFHDETEIQNQTDLLSLSGKTLCVTAGSAPSLINSSSTLLCQYINLQLLNAKPQECLMGTVGTLLLENPLGQNGLTHQGLLYEAAKVFGLRSRKLKLFLNETQTQEITEDIPVKTLNMKTVYVSVLPTTADF
Turning to B2, the binding result is “binds”.

B3: Structural maintenance of chromosomes protein 1A (protein, UniProt Q14683 1-1233)
chain: MGFLKLIEIENFKSYKGRQIIGPFQRFTAIIGPNGSGKSNLMDAISFVLGEKTSNLRVKTLRDLIHGAPVGKPAANRAFVSMVYSEEGAEDRTFARVIVGGSSEYKINNKVVQLHEYSEELEKLGILIKARNFLVFQGAVESIAMKNPKERTALFEEISRSGELAQEYDKRKKEMVKAEEDTQFNYHRKKNIAAERKEAKQEKEEADRYQRLKDEVVRAQVQLQLFKLYHNEVEIEKLNKELASKNKEIEKDKKRMDKVEDELKEKKKELGKMMREQQQIEKEIKEKDSELNQKRPQYIKAKENTSHKIKKLEAAKKSLQNAQKHYKKRKGDMDELEKEMLSVEKARQEFEERMEEESQSQGRDLTLEENQVKKYHRLKEEASKRAATLAQELEKFNRDQKADQDRLDLEERKKVETEAKIKQKLREIEENQKRIEKLEEYITTSKQSLEEQKKLEGELTEEVEMAKRRIDEINKELNQVMEQLGDARIDRQESSRQQRKAEIMESIKRLYPGSVYGRLIDLCQPTQKKYQIAVTKVLGKNMDAIIVDSEKTGRDCIQYIKEQRGEPETFLPLDYLEVKPTDEKLRELKGAKLVIDVIRYEPPHIKKALQYACGNALVCDNVEDARRIAFGGHQRHKTVALDGTLFQKSGVISGGASDLKAKARRWDEKAVDKLKEKKERLTEELKEQMKAKRKEAELRQVQSQAHGLQMRLKYSQSDLEQTKTRHLALNLQEKSKLESELANFGPRINDIKRIIQSREREMKDLKEKMNQVEDEVFEEFCREIGVRNIREFEEEKVKRQNEIAKKRLEFENQKTRLGIQLDFEKNQLKEDQDKVHMWEQTVKKDENEIEKLKKEEQRHMKIIDETMAQLQDLKNQHLAKKSEVNDKNHEMEEIRKKLGGANKEMTHLQKEVTAIETKLEQKRSDRHNLLQACKMQDIKLPLSKGTMDDISQEEGSSQGEDSVSGSQRISSIYAREALIEIDYGDLCEDLKDAQAEEEIKQEMNTLQQKLNEQQSVLQRIAAPNMKAMEKLESVRDKFQETSDEFEAARKRAKKAKQAFEQIKKERFDRFNACFESVATNIDEIYKALSRNSSAQAFLGPENPEEPYLDGINYNCVAPGKRFRPMDNLSGGEKTVAALALLFAIHSYKPAPFFVLDEIDAALDNTNIGKVANYIKEQSTCNFQAIVISLKEEFYTKAESLIGVYPEQGDCVISKVLTFDLTKYPDANPNPNEQ
For B3, the binding entry is on record as “binds”.
